## Results of single-concentration screens

From ChEMBL document CHEMBL3988442, “University of Dundee, Small-Polar-MMV Screening Library” (2021).

A: 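Whole-parasite assay of Trypanosoma brucei over 72 hours; the read-out is not stated. Compounds at 30 µM. Direction is inferred from retests: higher values go with stronger inhibition. Values scatter widely below zero; nearly all retest evidence comes from the higher of the two concentrations used. About 64,000 compounds were tested under these conditions; 1.5% (about 940) showed 50% or more at least once.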
B: 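Cell assay of Leishmania donovani living inside macrophages; the read-out is not stated. Compounds at 30 µM. Direction is inferred from retests: higher values go with stronger inhibition. About 69,000 compounds were tested under these conditions; 1.5% (about 1,000) showed 50% or more at least once.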
C: 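Assay of Toxoplasma gondii numbers, read through their beta-galactosidase reporter with a colour substrate. Compounds at 10 µM. Higher reads as fewer parasites (inferred from which compounds were picked for retests). About 67,000 compounds were tested under these conditions; 0.38% (about 260) showed 50% or more at least once.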

The filed quantity is “Percent Effect” (%). The record does not define 0% and 100%; most values in the screen are far below 50% and negative numbers occur (in some assays of this library far below -100). Compounds were drawn at random from those tested, without regard to their results. Two or more numbers in one place are separate tests of the same structure; such repeats can differ widely. A dash means the value is not listed here; it may have been measured.

| structure | A | B | C |
|---|---|---|---|
| `CN(C)C(=O)c1noc2c1CN(C(=O)CCC1CCCCN1C)CC2` (stereo not drawn) | -31.21 | 3.986 | 8.329 |
| `Cc1nc2cc(C(=O)N3CCn4c(nnc4C4CC4)C3)ccc2s1` | - | 5.502 | -9.625 |
| `CCc1nc(CN2CCCN(Cc3noc(C4CC4)n3)CC2)cs1` | -22.8 | 7.06 | 1.373 |
| `CCc1n[nH]c(C2CN(C(=O)CCc3cscn3)CCO2)n1` (stereo not drawn) | - | 10.44 | -12.25 |
| `COCCN1C[C@@H](C)[C@@]2(COCCN(C(=O)c3cnc(C)cn3)C2)C1.O=C(O)C(F)(F)F` | -19.84 | -26.69 | 2.03 |
| `COc1cc(N2CCC3(CC2)CC(N2CCOCC2)CO3)ncn1` (stereo not drawn) | -0.2277 | 12.46 | -31.06 |
| `Cc1ccc(OCC(=O)N2CCOCC(O)(CN3CCCC3)C2)cc1C` (stereo not drawn) | -118.7 | 15.56 | -31.74 |
| `NCc1cn(CC2CCCN(C(=O)NCc3ccc(Cl)cc3)C2)nn1` (stereo not drawn) | 43.07 | -2.134 | 14.56 |
| `O=C1NC2(CCN(C(=O)CN3CCOCC3)CC2)Nc2ccc(Cl)cc21` | -0.2732 | 26.42 | -2.584 |
| `Cc1cc2[nH]c(CN3CCOC(Cc4ccccc4)C3)cc(=O)n2n1` (stereo not drawn) | -21.61 | -3.8 | -1.218 |
| `Cc1cc(Oc2ccc(NC(=O)C3CC3)cc2)cc(C2CCNCC2)n1.Cl` | 99.81 | 1.574 | 16.4 |
| `NC(=O)C1CCN(c2nc3nccc(-c4ccccn4)c3c(=O)[nH]2)CC1` | 10.89 | 9.465 | -0.05028 |
| `CN1CCN(c2ccc(Cl)cc2NC(=O)c2ccco2)CC1` | 12.05 | 18.57 | 8.227 |
| `COc1ccc(S(=O)(=O)NC2(CC(N)=O)CCC2)cc1` | -29.37 | -0.3407 | -9.861 |
| `CN(Cc1ccccn1)C(=O)c1ccc2c(c1O)OC(C)(C)C2` | -36.51 | -8.949 | 17.56 |
| `Cl.Cl.[H][C@@]12CNCC[C@]1([H])N(C(C)C)[C@H](Cn1cncn1)C2` | -24.08 | -7.929 | 4.483 |
| `Cc1cnccc1CCNC(=O)Nc1cnc(N(C)C)nc1` | -47.69 | 21.77 and 27.03 | -21.94 |
| `CN1CC(=O)N(c2cccc(F)c2)CC12CCN(Cc1cnn(C)c1)C2.O=C(O)C(F)(F)F.O=C(O)C(F)(F)F` (stereo not drawn) | -19.04 | 17.99 | 14.57 |
| `Cc1cc(C(=O)N2C[C@H](CO)C[C@H](CN3CCOCC3)C2)cnc1C` | -54.77 | -29.26 | -2.512 |
| `Cc1noc(CN(C)CC2CCCN(CCc3ccc(Cl)cc3)C2)n1` (stereo not drawn) | 10.03 | 68.78 and 71.09 | -30.3 |
| `C=C(C)Cn1nnc(C2(NC(=O)c3ccccc3)CCCC2)n1` | -14.68 | 7.81 | - |
| `c1cncc(-c2noc(CCNc3ncnc4c3CCNCC4)n2)c1` | 10.9 | 24.85 | -6.744 |
| `[H][C@@]12COC[C@]1(COC)CN(C(=O)C1CCSCC1)C2` | -20.55 | 19.76 | -7.292 |
| `[H][C@@]12CN(c3ncnc4[nH]ccc34)C[C@]1(C(=O)O)CN(CC1CC1)C2=O` | 28.96 | 10.74 | -0.3643 |
| `O=C(c1ccc(N2CCCC2)nn1)N1CCCC(n2ccnc2)C1` (stereo not drawn) | 21.73 | 14.05 | -6.395 |
| `CC(C)CC(=O)N1CCCC1c1nccnc1Nc1ncccn1` (stereo not drawn) | 12.73 | -12.27 and -6.206 | 1.293 |
| `O=C(O)[C@@H]1CN(CC(=O)N2CCCCCC2)C[C@H]1c1ccc(F)cc1` | -17.41 | 25.12 | -6.367 |
| `COC(=O)c1ccc(N(C(=O)c2ccncc2)C(C)C)c(C)c1` | -26.95 | 7.339 | 6.311 |
| `O=C(NCCCN1CCCCC1)c1n[nH]c(=O)c2ccccc12` | -7.386 | 20.29 | -7.257 |
| `CC(C)N(C)Cc1noc2c1CN(C(=O)c1ccsc1)CC2` | -35.89 | 5.641 | 6.874 |
| `NC(=O)CN(C(=O)c1c[nH]c2ncccc12)C1CCCC1` | -56.45 | 17.76 | -10.88 |
| `Cc1nccn1CCC1CCCCN1Cc1cccc(CCN)c1` (stereo not drawn) | 16.55 | 40.1 | 8.549 |
| `Cl.O=C(Nc1nc2c(s1)CNCC2)NC1CCCC1` | -50.11 | 32.13 | 31.88 |
| `O=C(c1ccccc1)N1CCCN(C(=O)c2ncncc2Cl)CC1` | -25.57 | 3.646 | -4.442 |
| `Cc1nccn1-c1ccc(NS(=O)(=O)c2cnn(C)c2)cn1` | -11.18 | 12.94 | -6.698 |
| `c1ccc(-c2nc(CCNCc3ccncc3)co2)cc1` | -37.17 | -23.58 | -7.532 |
| `Cc1nc(NC(=O)CCc2c(C)nc3cc(O)nn3c2C)sc1C` | 32.2 | 7.708 | 9.956 |
| `COc1cccc2c1OCCCN(c1nc3c(c(=O)[nH]1)CCNCC3)C2` | 3.835 | 39.33 | 19.82 |
| `Cc1cc(C)n(C2CN(C(=O)CN3C(=O)CSc4ccccc43)C2)n1` | -8.42 | 12.77 | -5.096 |
| `CNc1cc(C)nc(NC2CCCN(C3Cc4ccccc4C3)C2)n1` (stereo not drawn) | - | 32.54 | 29.73 |
| `CCOC(=O)C1CCN(C(=O)Cn2ccc3cc(Br)ccc32)CC1` | 7.501 | -18.13 | 4.423 |
| `[H][C@@]12CCN(S(C)(=O)=O)C[C@]1(COc1nccc(C)n1)CCO2` | -9.746 | 22.41 | 8.931 |
| `CCC(=O)N1CCCc2c(cnn2C)C1` | -5.075 | -4.116 | -49.96 |
| `Cc1cc(NC(=O)N2CCOCC2)nn1-c1cccc(Cl)c1` | 4.667 | 11.61 | 3.386 |
| `Cc1nc(CN2CCN(S(=O)(=O)N3CCCCC3)CC2)oc1C` | -3.967 | 5.861 | 2.41 |
| `Cc1cccc(NC(=O)NC2CCC3(C2)OCCO3)c1Cl` (stereo not drawn) | -14.99 | -14.22 | -2.386 |
| `Cc1nn(CCC#N)c(C)c1CCC(=O)N(C)Cc1ccsc1` | -52 | 20.63 | -16.54 |
| `Cc1noc(C)c1C(=O)N1CCC(c2cc3cnccc3[nH]2)CC1` | -11.98 | -23.33 | 13.19 |
| `CC(C)c1noc(CNC2CCCN(Cc3noc(C4CC4)n3)C2)n1` (stereo not drawn) | -5.164 | 5.452 | 12.07 |
| `Cc1occc1C(=O)NCc1cccnc1N(C)C` | - | 27.64 | -8.259 |
| `CC(C)CS(=O)(=O)CC(=O)N(C)Cc1ccc(OC(F)F)cc1` | -16.97 | -2.747 | -15.35 |
| `CCN(C)C[C@@H]1CN(S(=O)(=O)c2cccc(Cl)c2)C[C@@H]1CO` | -0.02658 | 20.39 | -7.724 |
| `O=C(c1cccc2ccnn12)N1CCCC1Cn1cccn1` (stereo not drawn) | -0.76 | 11.34 | -1.999 |
| `O=S(=O)(NCC1COc2ccccc2C1)N1CCOCC1` (stereo not drawn) | -9.83 | 10.16 | -21.25 |
| `CN1CCOC(CN(C(=O)CC2CCCC2)c2nccs2)C1` (stereo not drawn) | -28.3 | -3.896 | -1.831 |
| `CC1CN(C(=O)c2cccc(OCc3cscn3)c2)CCO1` (stereo not drawn) | 3.624 | 15.03 | -1.8 |
| `NC(=O)c1cc(C2CCCN(CCc3ccc4c(c3)CCO4)C2)n[nH]1` (stereo not drawn) | -26.43 | 31.68 | 1.85 |
| `CC(C)OCc1nn(C)c2c1CN(Cc1cccs1)CC2.O=CO` | -25.67 | 13.66 | -17.92 |
| `O=C(c1ccno1)N1CC2(CCC(C(=O)N3CCCC3)O2)C1` (stereo not drawn) | -38.67 | 4.746 | 6.436 |
| `OCc1cn([C@@H]2c3ccccc3C3(CCNCC3)[C@H]2O)nn1` | -17.56 | 4.164 | -9.022 |
| `Cc1nc(C2CCCN(C(=O)CN3CCCC3=O)C2)sc1C` (stereo not drawn) | -15.1 | 19.87 | -26.64 |
| `CCNC(=O)c1ccc2ccc(N(CC)CC)n2c1` | -40.61 | 12.57 | 1.968 |
| `CN(C)C(=O)c1nc2c(n1C)CCN(Cc1ccccc1)C2` | -11.01 | 25.07 | 2.884 |
| `O=C(O)C(F)(F)F.[H][C@@]12CCCO[C@]1([H])[C@H](NC(=O)c1cnoc1C)CN(CCOCC)C2` | -87.51 | 14.94 | -14.34 |
| `Cc1nn(C)c2c(N3CCN(C(=O)C4CC4)CC3)ncnc12` | -10.68 | -65.11 | 13 |
| `CCn1cc2c(n1)CN(Cc1ccoc1)CC2COCC1CC1.O=C(O)C(F)(F)F` (stereo not drawn) | 24.53 | 5.932 | 8.403 |
| `O=C(C1SCCc2sccc21)N1CCN(C2CC2)C(=O)C1` (stereo not drawn) | -31.22 | 4.556 | -1.983 |
| `CC(=O)N1CCCC1c1cccc(Cc2ccccc2Cl)n1` (stereo not drawn) | 2.284 | 6.5 and -8.639 | -9.145 |
| `[H][C@]12CC[C@@H](N(C)c3cccnn3)[C@@]1([H])CN(Cc1cccc(C(=O)O)c1)C2` | -13.68 | 23.43 | 1.059 |
| `COCCNc1ccccc1CNC(=O)NCc1cnc(C)s1` | -10.39 | 19.41 | 3.213 |
| `Cc1csc(C2(NCCC(=O)N3CCOCC3)CCCC2)n1` | -46.3 | -3.585 | 1.063 |
| `CC(C)CCc1cc(C(=O)O)nc2[nH]c(=O)[nH]c(=O)c12` | -12.38 | -33.35 | -9.371 |
| `CCN(CCOC)C(=O)CCc1scnc1C` | -10.6 | 4.894 | -2.817 |
| `CCn1nnc(NCc2cc(Cl)cc(Cl)c2OC)n1` | -45.99 | -5.532 | 28.63 |
| `O=C(Nc1ccccc1)N1CCc2nc(C(=O)N3CCCC3)sc2CC1` | -31.27 | 23.11 | 8.793 |

For reference, 9 entries once more:

{"structure": "NC(=O)CN(C(=O)c1c[nH]c2ncccc12)C1CCCC1", "A": -56.45, "B": 17.76, "C": -10.88}
{"structure": "O=C1NC2(CCN(C(=O)CN3CCOCC3)CC2)Nc2ccc(Cl)cc21", "A": -0.2732, "B": 26.42, "C": -2.584}
{"structure": "CCC(=O)N1CCCc2c(cnn2C)C1", "A": -5.075, "B": -4.116, "C": -49.96}
{"structure": "CCN(C)C[C@@H]1CN(S(=O)(=O)c2cccc(Cl)c2)C[C@@H]1CO", "A": -0.02658, "B": 20.39, "C": -7.724}
{"structure": "CCn1nnc(NCc2cc(Cl)cc(Cl)c2OC)n1", "A": -45.99, "B": -5.532, "C": 28.63}
{"structure": "Cc1nc(CN2CCN(S(=O)(=O)N3CCCCC3)CC2)oc1C", "A": -3.967, "B": 5.861, "C": 2.41}
{"structure": "C=C(C)Cn1nnc(C2(NC(=O)c3ccccc3)CCCC2)n1", "A": -14.68, "B": 7.81}
{"structure": "CCN(CCOC)C(=O)CCc1scnc1C", "A": -10.6, "B": 4.894, "C": -2.817}
{"structure": "Cc1nccn1CCC1CCCCN1Cc1cccc(CCN)c1", "stereo": "stereo not drawn", "A": 16.55, "B": 40.1, "C": 8.549}